The values are deposited in ChEMBL (CHEMBL3988442, “University of Dundee, Small-Polar-MMV Screening Library” (2021)).

By UniProt entry, the sequences of proteins in these tests, tags left out. Residues count along the entry.
UniProt Q8IDJ8, 1-583: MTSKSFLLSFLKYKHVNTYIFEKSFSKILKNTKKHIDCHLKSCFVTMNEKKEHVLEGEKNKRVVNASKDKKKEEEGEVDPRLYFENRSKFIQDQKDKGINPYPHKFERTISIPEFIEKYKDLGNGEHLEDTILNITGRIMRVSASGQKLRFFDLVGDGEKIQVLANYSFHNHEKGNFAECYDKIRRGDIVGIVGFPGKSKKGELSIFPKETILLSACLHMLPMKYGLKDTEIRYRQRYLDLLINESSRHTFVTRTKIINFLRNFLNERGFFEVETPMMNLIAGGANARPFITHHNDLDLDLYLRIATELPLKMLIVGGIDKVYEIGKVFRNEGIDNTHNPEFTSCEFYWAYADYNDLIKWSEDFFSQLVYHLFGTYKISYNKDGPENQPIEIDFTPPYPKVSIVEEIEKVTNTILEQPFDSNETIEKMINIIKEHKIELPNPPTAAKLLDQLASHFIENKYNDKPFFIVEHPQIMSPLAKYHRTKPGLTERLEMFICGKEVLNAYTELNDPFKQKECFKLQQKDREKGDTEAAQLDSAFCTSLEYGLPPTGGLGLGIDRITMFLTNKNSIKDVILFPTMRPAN

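Enzyme assay of the cytosolic lysyl-tRNA synthetase in 384-well plates, read by luminescence. Target: Lysine-tRNA ligase, Plasmodium falciparum 3D7 (UniProt Q8IDJ8). Concentration: 30 µM. Higher reads as stronger inhibition, judged from the few compounds that gave an IC50. About 69,000 compounds were tested under these conditions; 0.071% (about 49) showed 50% or more at least once.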

Results are given as percent effect.
The record does not define 0% and 100%; most values in the screen are far below 50% and negative numbers occur (in some assays of this library far below -100).
This is an unselected part of the compounds tested.

Compound	effect
Cc1nn(CC(=O)NCC2(C(N)=O)CCOCC2)c(C)c1Cl	0.2441
O=C1CCCN1Cc1nnn2c1CN(c1ncccn1)CCC2	-1.788
COc1c(CNCCNC(=O)Cc2ccc(F)cc2)c(C)nn1C	0.4235
Cc1cnn(CC2CN(c3ccc(C#N)cn3)CCO2)c1 (centres unmarked)	-0.2904
CSCCN(C)C(=O)C1(c2ccc(F)cc2F)CCOCC1	1.294
Cc1nnsc1-c1nnc2sc(C3CCC3)nn12	3.442
COc1ccc(C)c2c1N(C(=O)c1cnc3onc(C)c3c1)CCC2	4.813
O=C(NCCCn1cccn1)C1(c2ccc(Br)cc2)CC1	2.747
COc1ccc(CNCc2ccnc(N3CCCC3)c2)c(OC)c1	-0.1138
Cc1nccc(-c2cccc(NCC(=O)NCC(=O)N3CCCC3)c2)n1	0.7144
Cc1cccc(CN2C(=O)CCC23CCN(Cc2ccoc2)CC3)n1	-4.194
CCc1[nH]ncc1C(=O)N1CCN(c2nccc(OC)n2)CC1	2.614
CCCC(=O)N(Cc1ccncc1)C(C)CC (centres unmarked)	3.332
NC(=O)C1CCCN1Cc1cccc(NC(=O)c2ccsc2)c1 (centres unmarked)	3.204
CCOC1COC2(CCN(c3ccccn3)CC2)C1 (centres unmarked)	2.461
O=C(c1ccc(F)c(F)c1)N1CCCSCC1CN1CCCC1 (centres unmarked)	4.208
COc1ccccc1CN(Cc1nc(Cc2ccccc2)no1)C1CC1	0.8542
C=C(C)CN(CC)S(=O)(=O)c1ccccc1C#N	1.17
COCCNC(=O)c1ccc2c(=O)n3c(nc2c1)CCCCC3	9.136
Cc1nc(CN2CCc3ncnc(C)c3CC2)cs1	-2.433
Cc1cc(C)nc(N2CCC(c3cc(CCO)[nH]n3)C2)n1 (centres unmarked)	0.6972
CCC(=O)N1CCC(Oc2ccc(C(=O)NCCN(C)C)cc2Cl)CC1	-0.03337
Cc1nn(CCNc2ncnc3c2NC(=O)CN3)c(C)c1Cl	4.957
COCc1ncc(-c2nccn2CCn2cnnc2)cn1	1.88
O=C(C1CCCCC1)N1C[C@H]2CNC[C@H]2C1	0.3679
O=C(NCc1ccccn1)[C@@H]1COC[C@H]2CNC[C@H]21	-3.879
CCS(=O)(=O)N1CCN(C(C)(C)CO)CC1	-0.6859
Cc1cnc(C(=O)N2CCN(C(=O)CC(C)C)[C@@H]3CS(=O)(=O)C[C@@H]32)cn1	7.227
O=C(CCNC(=O)c1ccccc1F)NCCNc1cccnc1	11.76
COc1ccc(C(=O)N2CCCC2c2noc(C(C)C)n2)nn1 (centres unmarked)	0.8043
Cn1cnnc1S(=O)(=O)C1CCN(S(=O)(=O)c2ccc(F)c(Cl)c2)CC1	1.982
Cc1nccn1CC1CCCN(S(=O)(=O)c2cnn(C)c2)C1 (centres unmarked)	0.6723
COCC(=O)N1CCC2(CCC(C(=O)N3CCCC3)O2)CC1 (centres unmarked)	-0.09177
CN(C)C(=O)c1c[nH]nc1C1CCN(S(=O)(=O)c2ccc(Cl)cc2)CC1	-0.1889
CNC(=O)C1Cn2ccnc2C2(CCN(C(=O)NC3CCCC3)CC2)O1 (centres unmarked)	3.615
Cc1cnc2n(c1=O)CC(C(=O)Nc1ccccc1Cl)CS2 (centres unmarked)	3.953
CCc1cc2c(N3CCCC(c4ccn[nH]4)C3)ncnc2s1 (centres unmarked)	-0.8422
O=C(CN1CCN(CCO)CC1)NCc1ccc(Cl)s1	2.564
C/C=C(\C)CN1C[C@H](NC(=O)c2cnc(O)cn2)C[C@H]1C(=O)NCC	3.702
CN(C)c1cc(C(=O)NCCc2nnc(-c3ccco3)[nH]2)ccn1	8.299
Cc1cccnc1C(NC(=O)CNC(=O)c1ccoc1C)C(C)C (centres unmarked)	-0.1997
COc1ccc(CN2C[C@@H]3CCCO[C@@H]3[C@H](NC(=O)CC3CC3)C2)cc1	8.174
CNc1nc(C)c(-c2nc(-c3c(C)ncc4c3CCNC4)no2)s1	4.735
CN(Cc1cccnc1)CC1CN(C(N)=O)Cc2nccn2C1 (centres unmarked)	-1.022
O=C1CC2(CCNCC2)C(=O)N1c1cccc(F)c1	3.15
O=C(c1nc2c(s1)CCCN2C(=O)C1CC1)N1CCCC1	2.027
CSCCC(=O)N(C/C=C/c1ccccc1)CCO	3.337
CNc1cc(C)nc(N2CCC3(CC2)[C@H](O)C[C@@H]3OC)n1	7.796
Cc1cc(CC(=O)N2CCCC2c2nc(C(C)C)no2)on1 (centres unmarked)	-2.216
O=C(c1ccco1)N1CCC2(CCC(=O)N2Cc2cccc(F)c2)CC1	4.215
Cc1cc(C(=O)N(C)C)nc(C2(C)CCCN2c2ccnc(C)n2)n1 (centres unmarked)	0.5691
COc1cc(OC)c(CNC(=O)NCc2ccc(C#N)cc2)c(OC)c1	6.149
CN(Cc1ccccc1)C(=O)CN1CCCCC1Cn1cncn1 (centres unmarked)	1.029
CCc1ccc(O)c(C(=O)N2CCN(CC(=O)N(C)C)CC2)c1	6.256
CCc1nc(C2NC3(CCCC3)C(=O)N2CC2CC2)cs1 (centres unmarked)	-3.717
CC(C)OCCC(=O)Nc1cccc(N2CCN(CC3CC3)CC2)c1	5.655
Cc1noc(C)c1C(=O)N1C[C@@H]2CN(Cc3cccnc3)CCO[C@@H]2C1	-2.694
CC(C)c1nc(CN(C)C(=O)c2ccc3c(c2)OCC(=O)N3)cs1	4.443
CO[C@@H]1CC[C@@H](NC(=O)c2ccc(OCCN3CCCC3)cc2)[C@H]1O	-1.153
COc1cc(C(=O)N2CCCC2CC(=O)c2cnn(C)c2)ccc1F (centres unmarked)	-2.625
Cc1ccc(CNCCC(O)(c2nccn2C)C(F)(F)F)o1 (centres unmarked)	9.855
O=C(C1CCC1)N1CCO[C@H]2[C@H](OCCCn3cccn3)CC[C@@H]21	4.505
COCCn1c(-c2cccc(OC)c2)cnc1NC(=O)NC(C)C	4.465
CN1CCC(CO[C@H]2CN(C(=O)c3cccn3C)[C@@H]3COC[C@H]23)CC1	1.313
CCC1=NC(SCC(=O)c2ccc(C)cc2)c2cc(CC)sc2N1 (centres unmarked)	1.737
O=C(C1CCCC1)N1CC2(CCN(C3COC3)CC2)Cc2ccccc21	-4.272
COc1cccc2c1ccn2CCC(=O)N1CCC(C(=O)O)CC1	8.017
CN(C)C(=O)Cc1ccccc1NCc1nc(Cc2ccccc2)no1	3.292
Cc1c(NC(=O)CN2CCC(Oc3cnccn3)CC2)cnn1C	3.705
O=S(=O)(Cc1ccccc1F)Cc1nnnn1C1CC1	-1.273
Cc1nc2c(c(N3CCC(CN4CCCC4=O)CC3)n1)CCNCC2	-0.3977
CC(C)(O)CN1CCN(C(=O)COCC(F)(F)F)CC1	5.545
Cc1ccnn1CC(=O)N1CCN(C2CCc3ccccc3C2)CC1 (centres unmarked)	1.746
CN(C)C(=O)[C@H]1CCS(=O)(=O)[C@@H]2CN(c3ncccn3)C[C@H]12	3.749
O=C([C@@H]1C[C@@H]2CCN(Cc3ccccn3)C[C@H]2O1)N1CCCO1	1.076

Once more, the final 6:

| Compound | effect |
|---|---|
| `O=S(=O)(Cc1ccccc1F)Cc1nnnn1C1CC1` | -1.273 |
| `Cc1nc2c(c(N3CCC(CN4CCCC4=O)CC3)n1)CCNCC2` | -0.3977 |
| `CC(C)(O)CN1CCN(C(=O)COCC(F)(F)F)CC1` | 5.545 |
| `Cc1ccnn1CC(=O)N1CCN(C2CCc3ccccc3C2)CC1` (centres unmarked) | 1.746 |
| `CN(C)C(=O)[C@H]1CCS(=O)(=O)[C@@H]2CN(c3ncccn3)C[C@H]12` | 3.749 |
| `O=C([C@@H]1C[C@@H]2CCN(Cc3ccccn3)C[C@H]2O1)N1CCCO1` | 1.076 |